Experimental data taken from patent publication US9359409B2, “Antimicrobial peptides, compositions comprising the same and uses thereof” (priority 2012, dated 2016).
At least one peptide structure holds a part that was inferred or is arguable (an end, a ring closure or a residue). Ends that are not written are not given here. Peptide text beside a SMILES is read from it.

Experiments:
tested strains = assay: Agar dilution, non-amidated peptides, whole panel; type: cell-based; conditions: any of the tested strains
S. warnerii = type: cell-based; conditions: non-amidated peptides, agar dilution
Procedure: (§1) In vitro sensitivity assay of aerobically growing bacteria, using the disc diffusion method was performed according to the standards in the M2 document of the CLSI (Clinical and Laboratory Standards Institute: Performance Standards for Antimicrobial Disk Susceptibility Tests.) using the non-amidated peptides
(§2) In brief, intermediate solutions (10×) of the antimicrobial non-amidated peptides were prepared by serial dilutions 1:2, 1:4 and 1:8 by two-fold dilutions. Then, one part of the solution of the antimicrobial peptide 10× was added to nine parts of melted bacteriological agar. The antibiotic solution was added for each dilution, in the melted agar and cooled to 45-50° C. in a water bath. Then, the agar-antibiotic mixture was placed in a Petri dish until a 3-4 mm depth was reached. The inoculum is prepared with a turbidity of 0.5 in the McFarland scale (approximately 1-2 10^8 CFU/ml). The final inoculum required for the agar dilution test is 10^4 colony forming units (CFU) per “spot” having 5-8 mm in diameter. The inoculated plates must be incubated upside down at 35° C. for a period of 16-20 hs. MIC was recorded as the value of the lower dilution completely inhibiting bacterial development, without considering the development of a single colony or a slight film caused by the inoculum deposit. The final point in these cases will correspond to the concentration at which there is more than 80% reduction in growth as compared with the control.

S. cohnii = type: cell-based; conditions: non-amidated peptides, agar dilution
Procedure: as §1, §2

Klebsiella pneumoniae = Klebsiella pneumoniae clinical isolates, Tables 3 and 4
Procedure: The 5 designed and synthesized peptides of the invention, plus omiganan (peptide of the state of the art) were evaluated for their antimicrobial capacity in microdilution assays for determining the minimum inhibitory concentration (MIC). A first panel of 8 representative strains was analyzed in these assays, encompassing Gram positive and Gram negative bacteria. […] The lowest MIC values indicate a higher antimicrobial potency.
Subsequently, an analysis of a panel of clinical isolates including strains with different resistance mechanisms against conventional antibiotics was carried out, all of which are of clinical relevance. […] In Table 3 the results for a panel of Gram negative bacteria are shown, and in Table 4 for a panel of […] bacteria. In these tables the detected gene/s responsible for the resistance against antibiotics for each strain, are included.
Antimicrobial activity was analyzed by means of the determination of the MIC (minimum inhibitory concentration) by the microdilution technique. The technique was carried out in the standard fashion according to (CLSI M07-A9 Vol. 32 No 2. January 2012). The peptide concentration range used was from 0.5 μg/mL to 512 μg/mL in two-fold serial dilutions. The used medium was MH Difco broth supplemented with cations, at a final concentration of Ca^++20-25 mg/L and Mg^++10-12.5 mg/L. The working inoculum used corresponds to a 1/100 dilution of a bacterial suspension equivalent to 0.5 in the Mc Farland scale.

K. pneumoniae = type: cell-based; conditions: non-amidated peptides, agar dilution
Procedure: as §1, §2

Compound | activity at the concentrations studied (in words) (tested strains) | activity at the concentrations studied (in words) (S. warnerii) | activity at the concentrations studied (in words) (S. cohnii) | activity compared with Omiganan (Klebsiella pneumoniae) | activity at the concentrations studied (in words) (K. pneumoniae)
CC[C@H](C)[C@H](NC(=O)[C@H](CCCCN)NC(=O)[C@H](CCCNC(=N)N)NC(=O)[C@H](CC(N)=O)NC(=O)CNC(=O)[C@H](CCCNC(=N)N)NC(=O)[C@H](Cc1ccccc1)NC(=O)[C@@H](NC(=O)[C@H](CS)NC(=O)[C@H](Cc1c[nH]cn1)NC(=O)[C@H](CC(C)C)NC(=O)[C@@H]1CCCN1C(=O)[C@H](CCC(N)=O)NC(=O)[C@@H]1CCCN1C(=O)[C@@H](NC(=O)[C@H](CC(N)=O)NC(=O)[C@@H]1CCCN1C(=O)[C@H](CC(C)C)NC(=O)CNC(=O)[C@@H](NC(=O)CNC(=O)[C@H](CO)NC(=O)[C@H](CC(C)C)NC(=O)[C@H](CC(C)C)NC(=O)[C@H](CC(=O)O)NC(=O)[C@H](CS)NC(=O)[C@@H](NC(=O)[C@@H](N)[C@@H](C)O)[C@@H](C)O)C(C)C)C(C)C)C(C)C)C(=O)N[C@@H](CCCCN)C(=O)N[C@@H](Cc1c[nH]c2ccccc12)C(N)=O [peptide 4] (H-TTCDLLSGVGLPNVPQPLHCVFRGNRKIKW-NH2) | does not have activity |  |  |  | 
FGKEKKAWWRRRKWLK-NH2 [peptide 3, FGKEKKAWWRRRKWLK] |  | has activity | has activity |  | 
GLLKKWLKKWKEFKRIVGY-NH2 [peptide 2, GLLKKWLKKWKEFKRIVGY] |  | has activity | has activity | great improvements in potency | has activity
RIVQRIKKWLLKWKKLGY-NH2 [peptide 5, RIVQRIKKWLLKWKKLGY] |  | has activity | has activity | great improvements in potency | 
WPKWWKWKRRWGRKKAKKRRG-NH2 [peptide 1] |  | has activity | has activity | lower activity than the Omiganan peptide | 
